From paper doi:10.1101/2025.05.13.653700
Results are given in words; binding and its absence hold for the method and conditions named. In cells and extracts the contact can be indirect. Some binding calls cover weakened binding; strength is not graded here.

By UniProt entry, the sequences of proteins in these tests, tags left out.
UniProt Q7L945: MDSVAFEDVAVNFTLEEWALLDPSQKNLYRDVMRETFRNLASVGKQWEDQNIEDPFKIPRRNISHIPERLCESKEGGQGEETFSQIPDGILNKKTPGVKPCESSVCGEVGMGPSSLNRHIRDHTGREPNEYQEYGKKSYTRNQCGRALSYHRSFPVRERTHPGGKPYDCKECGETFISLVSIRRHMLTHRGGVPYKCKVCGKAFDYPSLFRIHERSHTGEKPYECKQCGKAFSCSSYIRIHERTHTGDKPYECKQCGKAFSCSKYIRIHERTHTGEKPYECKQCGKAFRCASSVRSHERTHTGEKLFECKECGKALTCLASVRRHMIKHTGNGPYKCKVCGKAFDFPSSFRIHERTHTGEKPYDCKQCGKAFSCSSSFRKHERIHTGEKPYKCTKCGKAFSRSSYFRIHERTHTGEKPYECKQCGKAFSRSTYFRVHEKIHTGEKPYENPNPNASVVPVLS
UniProt Q9C0F3: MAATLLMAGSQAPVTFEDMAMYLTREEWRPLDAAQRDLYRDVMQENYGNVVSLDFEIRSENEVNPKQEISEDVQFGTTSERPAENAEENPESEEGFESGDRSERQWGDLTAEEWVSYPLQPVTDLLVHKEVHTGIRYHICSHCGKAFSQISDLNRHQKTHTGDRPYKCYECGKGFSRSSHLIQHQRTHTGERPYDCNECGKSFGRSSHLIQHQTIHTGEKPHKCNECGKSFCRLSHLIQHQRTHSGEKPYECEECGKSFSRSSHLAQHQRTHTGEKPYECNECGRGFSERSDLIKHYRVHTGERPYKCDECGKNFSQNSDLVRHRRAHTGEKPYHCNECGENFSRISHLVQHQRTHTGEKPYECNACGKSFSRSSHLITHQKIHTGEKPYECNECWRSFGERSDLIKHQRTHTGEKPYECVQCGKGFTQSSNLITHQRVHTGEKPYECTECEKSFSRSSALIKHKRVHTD
UniProt Q13263: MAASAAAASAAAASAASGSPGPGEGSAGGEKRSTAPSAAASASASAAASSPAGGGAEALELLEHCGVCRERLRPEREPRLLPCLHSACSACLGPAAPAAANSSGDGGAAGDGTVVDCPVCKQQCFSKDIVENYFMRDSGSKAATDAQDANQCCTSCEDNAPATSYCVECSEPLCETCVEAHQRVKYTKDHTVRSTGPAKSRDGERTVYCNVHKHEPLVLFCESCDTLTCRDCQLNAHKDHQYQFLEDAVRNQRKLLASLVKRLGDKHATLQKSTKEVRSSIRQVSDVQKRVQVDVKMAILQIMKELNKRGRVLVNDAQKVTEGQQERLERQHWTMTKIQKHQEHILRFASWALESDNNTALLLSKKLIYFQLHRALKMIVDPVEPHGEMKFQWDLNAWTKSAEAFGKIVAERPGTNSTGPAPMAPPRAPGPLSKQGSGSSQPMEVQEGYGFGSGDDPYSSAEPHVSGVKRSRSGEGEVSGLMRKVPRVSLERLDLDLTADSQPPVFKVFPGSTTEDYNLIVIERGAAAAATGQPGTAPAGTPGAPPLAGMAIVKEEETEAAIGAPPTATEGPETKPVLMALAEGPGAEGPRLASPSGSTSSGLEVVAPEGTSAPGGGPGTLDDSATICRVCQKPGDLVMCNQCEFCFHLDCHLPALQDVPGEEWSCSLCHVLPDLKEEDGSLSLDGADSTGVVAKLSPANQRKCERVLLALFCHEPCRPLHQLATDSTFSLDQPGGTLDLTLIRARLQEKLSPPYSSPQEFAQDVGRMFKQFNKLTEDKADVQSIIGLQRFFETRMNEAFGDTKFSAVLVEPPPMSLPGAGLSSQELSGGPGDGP

How the values were obtained:
[1] = biological target: HA-tagged ZNF627 (co-immunoprecipitation construct, A673 cells) (UniProt Q7L945); test: co-IP
[2] = biological target: HA-tagged ZNF436 (co-immunoprecipitation construct, A673 cells) (human) (UniProt Q9C0F3); test: co-IP

KAP1 (TRIM28), endogenous in A673 cells (from UniProt Q13263 1-835)
binding [1]: binds
binding [2]: no binding
